PubChem BioAssay AID504808, Drosophila RNAi Screening Center – 2011
In all, the deposit lists about 21,000 reagents; below is an unselected part of those with a known target gene and a result. Of all reagents, 18 (0.084%) are marked active. 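Raw counts without plate normalisation, one of two replicates; the ratio scores behind the calls were not deposited.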 Unmarked entries are inactive. The numbers tell different reagents against one gene apart. A plus sign joins genes that one reagent is predicted to hit. The record does not give: the amount of reagent, the time to read-out.

- Purpose: 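Fly genes required to hold E2F transcription in check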 (primary screen)
- System: Drosophila S2 cells
- Knock-down reagent: long dsRNA against Drosophila genes
- Detection: 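Firefly luciferase driven by E2F sites, normalised to Renilla luciferase on the same minimal promoter, measured by plate reader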
- Direction: E2F firefly: higher = more E2F reporter activity; Renilla normaliser: higher = more normaliser reporter signal
- Call rule: 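a knock-down counted as active when the firefly/Renilla E2F signal rose above 50%, a threshold chosen arbitrarily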

gene,reagent no.,"E2F firefly, rep 1","Renilla normaliser, rep 1"
CG13674,1,87938,3201
"Ccz1 (Caffeine, calcium, zinc sensitivity 1)",1,1.06e5,4295
CG5510,1,1.12e5,5717
p (pink),1,1.33e5,6034
CG33964 + CG13175,1,1.05e5,4257
CG33964 + CG13175,2,96337,4076
CG33964 + CG13175,3,1.05e5,4809
MED4 (Mediator complex subunit 4),1,50530,3139
CG42380 + CG42379 + PIG-M + 1 more,1,1.20e5,4131
CG42380 + CG42379 + PIG-M + 1 more,2,81852,3278
His2B:CG33894 + His2B:CG33872 + His2B:CG33902 + 20 more,1,56426,5418
CAH3 (Carbonic anhydrase 3),1,1.08e5,5783
kri (krishah),1,78058,3534
CG7639,1,1.02e5,4345
Gr33a (Gustatory receptor 33a),1,93379,4473
CG33514,1,1.04e5,3710
CG33514,2,84298,3486
CG5828,1,1.63e5,5008
CG14879,1,1.20e5,6071
CG1894,1,1.32e5,6456
CG17959,1,1.12e5,6304
CG14708,1,1.31e5,6197
tws (twins),1,72118,3621
tws (twins),2,81295,4164
chif (chiffon),1,77330,3534
Ssu72 (Ssu72 CTD phosphatase),1,1.39e5,6220
Kif3C (Kinesin family member 3C),1,42356,3431
Kif3C (Kinesin family member 3C),2,72279,4040
RpS15Ab + RpS15Aa,1,91829,5055
RpS15Ab + RpS15Aa,2,60384,5740
Nap1 (Nucleosome assembly protein 1),1,82460,3434
CG8635,1,2848,219
Wnt6 (Wnt oncogene analog 6),1,1.58e5,5752
CG33648,1,1.51e5,5968
laza (lazaro),1,75918,3286
Surf6 (Surfeit 6),1,64398,2971
CG6791,1,78513,3987
drpr (draper),1,88738,3768
drpr (draper),2,90078,4152
Mppe (Metallophosphoesterase),1,2558,220
Snap25 (Synaptosomal-associated protein 25kDa),1,1.34e5,5818
Snap25 (Synaptosomal-associated protein 25kDa),2,76595,4937
TwdlO (TweedleO),1,1.13e5,8253
CG13361,1,83878,4462
Prp19 (Pre-RNA processing factor 19),1,1.11e5,4862
zetaCOP (Coat Protein (coatomer) zeta),1,1.06e5,8755
dbf (doublefault),1,1.43e5,5234
ida (imaginal discs arrested),1,1.03e5,4298
CG4467,1,1.06e5,6117
CG32053,1,77991,3426
Vha36-3 (Vacuolar H[+] ATPase 36kD subunit 3),1,1.29e5,5826
Lpt (Lost PHDs of trr),1,1.01e5,4280
Lpt (Lost PHDs of trr),2,78482,2914
Cyt-c-d (Cytochrome c distal),1,1.01e5,3929
Gr64c (Gustatory receptor 64c),1,1.12e5,4141
CG13258,1,1.09e5,4457
CG15877,1,99754,4188
Dlish (Dachs ligand with SH3s),1,1.64e5,5179
Atac1 (Ada2a-containing complex component 1),1,1.55e5,5468
CG5250,1,1.58e5,8288
Hel89B (Helicase 89B),1,68796,2952
CG1902,1,2622,210
JTBR,1,1.04e5,4233
Acp36DE (Accessory gland protein 36DE),1,95926,4137
Gnpnat (Glucosamine-phosphate N-acetyltransferase),1,1847,952
nemy (no extended memory),1,1.24e5,5802
nemy (no extended memory),2,82922,6202
mRpL51 (mitochondrial ribosomal protein L51),1,85031,3558
CG43736 + CG33692 (retired record),1,70850,4949
CG43736 + CG33692 (retired record),2,1.02e5,5443
CG1910,1,1780,916
BBS1 (Bardet-Biedl syndrome 1),1,52547,2955
smal (smoke alarm),1,1.58e5,5610
smal (smoke alarm),2,1.51e5,5318
smal (smoke alarm),3,1.51e5,5011
smal (smoke alarm),4,1.41e5,5267
Pgant35A (Polypeptide N-acetylgalactosaminyltransferase 35A),1,1.02e5,4394
CG4036,1,80850,3128
sav (salvador),1,1.11e5,5536
sav (salvador),2,1.09e5,6170
CG17343,1,1.07e5,4016
Hs2st (Heparan sulfate 2-O-sulfotransferase),1,76183,3032
asrij,1,1.02e5,4929
nonA-l (nonA-like),1,1.10e5,5844

Single entries from above:
CG17959, Renilla normaliser, rep 1 → 6304
For “Renilla normaliser, rep 1”, drpr (draper) #2 is entered as 4152
Result for nemy (no extended memory) #1 in “Renilla normaliser, rep 1”: 5802
For “Renilla normaliser, rep 1”, CG32053 shows 3426
Value for CG33648 under “E2F firefly, rep 1”: 1.51e5
ida (imaginal discs arrested), Renilla normaliser, rep 1: 4298
